Experimental data reported in article PMC10247153.
These are yes or no findings as the source states them, for the method shown.

Molecular target: T1, ARID (KDM5C residues 73–188) (human) (UniProt P41229)
T1 sequence: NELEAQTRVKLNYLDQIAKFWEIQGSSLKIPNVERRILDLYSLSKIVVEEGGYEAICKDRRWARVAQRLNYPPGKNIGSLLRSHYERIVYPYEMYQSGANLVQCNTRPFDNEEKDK
Assay: condition: up to 1:3 molar ratio of ARID:PHD1 (50 μM ARID); NMR titration; 2D 1H-15N HSQC of 50 μM 15N-ARID with increasing PHD1 up to 1:3 ARID:PHD1; 50 mM HEPES pH 7, 50 mM KCl, 5 mM BME, 50 μM ZnCl2, 5% D2O, 298 K; both purified

B1: PHD1 (KDM5C residues 318–378) (domain or fragment, UniProt P41229-1 318-378)
chain: NAQFIESYVCRMCSRGDEDDKLLLCDGCDDNYHIFCLLPPLPEIPKGVWRCPKCVMAECKR
Q: For B1, which binding is on record?
A: no binding
